Experimental data from PubChem BioAssay AID504327 (National Center for Advancing Translational Sciences (NCATS), 2011).
Values joined by “and” are separate entries in the source; they are usually repeats but may differ in a detail not shown here. Equal entries are not always repeated. The campaign covered roughly 390,000 compounds. About 820 (0.21%) were called active. Inconclusive means that the source gave no clear call. Such entries were picked first, then a sample of the others. Calls come from the whole dose curve; as a rule, active = well fitted inhibition curve with a large enough effect; inconclusive = small, poorly fitted or top-dose-only effect, or another doubt; inactive = no such curve, though single readings can be large or run the other way. Potencies beside an inconclusive call are fits to weak or partial responses and may not hold up.

By UniProt entry, the sequences of proteins in these tests, tags left out.
UniProt Q92830, whole entry, looked up: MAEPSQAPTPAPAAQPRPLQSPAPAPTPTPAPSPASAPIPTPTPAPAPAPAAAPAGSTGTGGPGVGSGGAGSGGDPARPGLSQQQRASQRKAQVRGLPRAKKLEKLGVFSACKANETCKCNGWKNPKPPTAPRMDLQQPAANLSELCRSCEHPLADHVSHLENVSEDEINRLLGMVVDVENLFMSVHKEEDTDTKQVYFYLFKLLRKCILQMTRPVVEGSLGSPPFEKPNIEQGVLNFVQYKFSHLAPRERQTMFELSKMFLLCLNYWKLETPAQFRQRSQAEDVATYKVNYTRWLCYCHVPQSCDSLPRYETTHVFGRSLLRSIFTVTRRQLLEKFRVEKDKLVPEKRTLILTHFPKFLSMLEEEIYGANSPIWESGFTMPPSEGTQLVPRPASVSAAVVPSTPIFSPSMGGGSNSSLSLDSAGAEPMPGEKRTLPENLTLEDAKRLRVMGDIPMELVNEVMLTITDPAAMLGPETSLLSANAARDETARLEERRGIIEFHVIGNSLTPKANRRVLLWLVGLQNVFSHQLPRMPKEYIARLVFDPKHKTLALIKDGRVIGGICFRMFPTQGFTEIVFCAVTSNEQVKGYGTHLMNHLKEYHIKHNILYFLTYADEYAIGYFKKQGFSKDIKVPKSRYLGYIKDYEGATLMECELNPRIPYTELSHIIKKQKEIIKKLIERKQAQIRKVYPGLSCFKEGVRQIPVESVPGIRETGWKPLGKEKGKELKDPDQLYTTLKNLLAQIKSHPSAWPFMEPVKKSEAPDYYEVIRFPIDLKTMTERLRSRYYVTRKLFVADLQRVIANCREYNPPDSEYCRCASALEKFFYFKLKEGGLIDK

Target: Histone acetyltransferase KAT2A (Homo sapiens) (UniProt Q92830)
Assay: qHTS Assay for Inhibitors of GCN5L2
Conditions: GCN5L2 HAT assay, ThioGlo1 CoA-SH fluorescence; activity change, negative = inhibition: at 58.9 µM (top of the series) unless noted
Procedure, shortened: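 qHTS, 1536-well. 20nM enzyme, pH 7.5 HEPES/EDTA/Tween-20 buffer; 15 min compound preinc., RT. Start: 75uM H3(1-25), 70uM AcCoA, 50uM ThioGlo1. Read Ex340/Em540 at t=0 (autofluorescence flag) and t=20 min.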
% is set by controls: 0 for no effect and ±100 for the full control effect; potency is the fitted concentration of half-maximal effect.

Structure (SMILES) | Potency | activity change, negative = inhibition
CCOC(=O)CNc1c(-c2ccc(F)cc2)nc2cnccn12 | inconclusive: 31.6 µM [inhibitor, single point] | 
CC1CCN(C(=S)c2ccc([N+](=O)[O-])cc2)CC1 |  | inactive: 20.8%
O=C(c1ccccc1)N1N=C(C(F)(F)F)CC1(O)c1ccccc1O (stereo not drawn) | inconclusive: 28.2 µM [inhibitor, single point] | 
CC(C)=CCC/C(C)=C/CC/C(C)=C/CSCC(=O)O | inconclusive: 25.1 µM [inhibitor, single point] | 
CN(C)c1ncnc2c1NC1=C(S2)C(=NCCCC(=O)O)CC(C)(C)C1 |  | inactive: -8%
CCN(CC(=O)Nc1ccc2c(c1)OCCO2)CC(=O)Nc1ccccc1C(F)(F)F |  | inactive: -2.98%
O=C(c1ccccc1)N1CCC(=O)N1c1ccccc1 |  | inactive: 11.2%
CCc1ccc(-n2cccc2/C=C2/C(=N)N3C(=NC2=O)SN=C3S(C)(=O)=O)cc1 | active: 20 µM | 
COc1cccc(Cn2cccc(NC(=O)Nc3ccccc3C)c2=O)c1 |  | inactive: 4.22%
CCOC(=O)c1sc(NC(=O)Nc2ccccc2)cc1C |  | inactive: -15.4%
Cc1ccc2c(CC(=O)NCc3ccco3)coc2c1C | inconclusive: 20 µM [inhibitor, partial curve] | 
CCN(CC(=O)Nc1ccc(OC)cc1)C(=O)CSCC(=O)Nc1ccc(C)cc1 | inconclusive: 1.58 µM [inhibitor, full curve, poor fit] | 
O=C(N1CCCCC1)N1CCN(C(=O)N(c2ccccc2)c2ccccc2)CC1 | inconclusive: 35.5 µM [inhibitor, single point] | 
CCN(CCCNC(=O)c1cc(Nc2ccccc2OC)nc2ccccc12)c1cccc(C)c1 |  | inactive: -16.3%
COc1ccc(-c2noc(C3CC(=O)N(c4ccccc4)C3)n2)c(OC)c1 (stereo not drawn) |  | inactive: 27.6%
COc1ccccc1N1CCN(CCCCNS(=O)(=O)c2cccc3c(N(C)C)cccc23)CC1 | inconclusive: 39.8 µM [inhibitor, single point] | 
N#Cc1cnc(Oc2ccc(Cl)cc2)nc1N |  | inactive: 1.28%
CN(Cc1ccc(Cl)c(Cl)c1)C(=O)c1cccc(S(=O)(=O)N2CCN(Cc3ccccc3)CC2)c1 |  | inactive: -7.87%
CCOC(CNC(=O)CN1C(=O)COc2ccc(S(=O)(=O)N3CC(C)CC(C)C3)cc21)OCC (stereo not drawn) | inconclusive: 39.8 µM [inhibitor, single point] | 
COc1ccc2oc(=O)c(C(=O)NCc3ccccn3)cc2c1 | inconclusive: 35.5 µM [inhibitor, single point] | 
CC(=O)c1ccc(NC(=O)c2ccc(-c3nc(CSc4ccccc4)c(C)o3)cc2)cc1 | inconclusive: 28.2 µM [inhibitor, partial curve] | 
Cc1cc2nc3c(=O)[nH]c(=O)nc-3n(CC(O)C(O)C(O)CO)c2cc1C (stereo not drawn) | inconclusive: 12.6 µM [inhibitor, partial curve, poor fit] | 
CCNC(=S)N(CCN(C)C)Cc1cc2cc3c(cc2[nH]c1=O)OCO3 | inconclusive: 6.31 µM [inhibitor, single point] | 

Single records, from the list above:
`CCN(CC(=O)Nc1ccc(OC)cc1)C(=O)CSCC(=O)Nc1ccc(C)cc1` is entered as Potency: inconclusive: 1.58 µM [inhibitor, full curve, poor fit]
`CN(C)c1ncnc2c1NC1=C(S2)C(=NCCCC(=O)O)CC(C)(C)C1` is entered as activity change, negative = inhibition: inactive: -8%
`O=C(N1CCCCC1)N1CCN(C(=O)N(c2ccccc2)c2ccccc2)CC1` is entered as Potency: inconclusive: 35.5 µM [inhibitor, single point]

Further entries.

Structure (SMILES) | Potency | activity change, negative = inhibition
COc1ccc(N2C(=O)CC(Sc3n[nH]c(-c4cccc(C)c4)n3)C2=O)cc1 (stereo not drawn) | inconclusive: 31.6 µM [inhibitor, partial curve, poor fit] | 
COC(=O)c1sc(-c2ccc(Cl)cc2)cc1NC(=O)c1ccccc1C(=O)O | inconclusive: 0.112 µM [inhibitor, full curve, poor fit] | 
Cc1cc(C)nc(NN2C(=O)/C(=C/c3ccc(O)cc3)SC2=S)n1 | inconclusive: 7.08 µM [inhibitor, single point] | 
Cc1ccc(Oc2ccccc2NC(=O)CN2C(=O)NC3(CCCC3)C2=O)cc1 | inconclusive: 31.6 µM [inhibitor, single point] | 
CCOC(=O)C(=NC(C)CC)NNc1ccc(Br)cc1 (stereo not drawn) |  | inactive: -12.8%
CCCCn1c(O)c(/C=C/C=C/C=Nc2ccccc2)sc1=S | inconclusive: 14.1 µM [inhibitor, partial curve] | 
COC(=O)[C@@H]1C[C@@]2(O)[C@H](O)[C@H](O)[C@H](O)C[C@H]2N1Cc1ccc(-c2ccccc2)cc1 | inconclusive: 2.51 µM [inhibitor, partial curve] | 
Cc1ccc2ccccc2[n+]1CCCS(=O)(=O)[O-] |  | inactive: -9.27%
CCC(C)NC(=O)c1cc2c(=O)n3cccc(C)c3nc2s1 (stereo not drawn) | inconclusive: 39.8 µM [inhibitor, single point] | 
Cc1cc(C)c(NC(=O)CSc2nnc(CNC(=O)c3ccccc3F)o2)c(C)c1 | inconclusive: 0.1 µM [inhibitor, full curve, poor fit] | 
CC(=O)c1ccc(NC(=O)C(C)N(C)CC(=O)Nc2cccc(F)c2)cc1 (stereo not drawn) | inconclusive: 0.794 µM [inhibitor, single point] | 
CCOC(=O)c1ccc(N2C(=O)C3C(C2=O)C(C(=O)c2ccc(Cl)cc2)N2CCCC32)cc1 (stereo not drawn) | inconclusive: 22.4 µM [inhibitor, single point] | 
CSc1ccccc1NC(=O)COc1ccc(S(=O)(=O)N2CCCC2)cc1 | inconclusive: 12.6 µM [inhibitor, partial curve, poor fit] | 
CSC1CCCCC1(O)CSc1nc2ccccc2o1 (stereo not drawn) |  | inactive: -10.9%
COCCNC(=O)c1cc(-c2ccc(Cl)c(Cl)c2)on1 | inconclusive: 0.794 µM [inhibitor, single point] | 
Cc1cc(Br)ccc1NC(=O)C1CCCO1 (stereo not drawn) | inconclusive: 22.4 µM [inhibitor, partial curve, poor fit] | 
Cc1ccc(Cl)cc1-n1ncc2c(Nc3cccc(C)c3C)ncnc21 |  | inactive: -1.99%
Cc1nc(-c2ccccn2)sc1C(=O)Nc1ccc(Cl)c(Cl)c1 | inconclusive: 7.08 µM [inhibitor, single point] | 
CCN1/C(=C/C=C/c2sc3ccccc3[n+]2CC)Sc2ccccc21 | inconclusive: 22.4 µM [inhibitor, partial curve] and inconclusive: 39.8 µM [inhibitor, single point] | 
O=C(COc1ccc(F)cc1)Nc1cc(Cl)ccc1-n1cncn1 |  | inactive: -1.08%
COc1ccccc1N1CCN(C(=O)CN2C(=O)c3cccc4cccc(c34)C2=O)CC1 |  | inactive: -7.89%
CCc1ccc(-n2c(=O)c3cccnc3n2CC(=O)NCc2ccc(C)cc2)cc1 | inconclusive: 12.6 µM [inhibitor, partial curve, poor fit] | 
COc1ccc(Cl)cc1NC(=O)CSC1=Nc2ccccc2C2=NC(CC(=O)NCc3cccs3)C(=O)N12 (stereo not drawn) |  | inactive: -15.1%

A different layout for part of the listing above.
Cc1ccc(Oc2ccccc2NC(=O)CN2C(=O)NC3(CCCC3)C2=O)cc1
  Potency: inconclusive: 31.6 µM [inhibitor, single point]
CCOC(=O)C(=NC(C)CC)NNc1ccc(Br)cc1 (stereo not drawn)
  activity change, negative = inhibition: inactive: -12.8%

More records follow.

Structure (SMILES) | Potency | activity change, negative = inhibition
COc1ccc(C)cc1S(=O)(=O)Nc1cccc(-c2ccc(N3CCCCCC3)nn2)c1 | inconclusive: 0.631 µM [inhibitor, full curve] | 
COc1cc(OC)c(N(C)C(=O)c2sc3nc4n(c(=O)c3c2C)CCCC4)cc1Cl | inconclusive: 39.8 µM [inhibitor, single point] | 
CC(C)(C)C(=O)Nc1nc(-c2ccc3c(c2)OCO3)cs1 | inconclusive: 35.5 µM [inhibitor, single point] | 
O=C(NNC(=O)C1[C@H]2CCCC[C@@H]12)c1ccc(=O)oc1 (stereo partly drawn) | inconclusive: 5.62 µM [inhibitor, full curve] | 
Cc1ccc(NC(=O)C(C)Sc2nnc(C)n2C)cc1 (stereo not drawn) | inconclusive: 28.2 µM [inhibitor, single point] | 
O=C(O)c1cc(NN=C2c3ccccc3-c3ccccc32)ccc1Cl | inconclusive: 22.4 µM [inhibitor, single point] | 
O=S(=O)(c1ccc(-c2ccon2)s1)N1CCCC1 | inconclusive: 39.8 µM [inhibitor, single point] | 
O=C(O)c1ccc(/C=N/Nc2ccc(S(=O)(=O)N3CCCC3)cc2[N+](=O)[O-])cc1 |  | inactive: 2.3%
O=C(OC1Cc2c(O)cc(O)cc2OC1c1cc(O)c(O)c(O)c1-c1c(C2Oc3cc(O)cc(O)c3CC2O)cc(O)c(O)c1O)c1cc(O)c(O)c(O)c1 (stereo not drawn) | active: 15.8 µM | 
Cc1ccc(SC(CC(=O)c2ccc(C)cc2)C(=O)O)cc1 (stereo not drawn) |  | inactive: -4.21%
CN(Cc1nc(-c2ccc(C(F)(F)F)cc2)no1)C1CCOCC1 | inconclusive: 39.8 µM [inhibitor, single point] | 
O=C(N/N=C/c1cccs1)C1CC(=O)N(c2ccccc2)C1 (stereo not drawn) | inconclusive: 25.1 µM [inhibitor, partial curve, poor fit] | 
Cc1cc(/C=C(/C#N)C(=O)Nc2ccccc2)c(C)n1-c1cccnc1 |  | inactive: -6.41%
COc1cc([N+](=O)[O-])cc2sc(NC(C)=O)nc12 |  | inactive: -7.4%
COc1ccc(-n2cccc2/C=C2\C(=N)N3N=C(c4ccco4)SC3=NC2=O)cc1 | inconclusive: 12.6 µM [inhibitor, partial curve] | 
COc1ccc(Oc2ncc3nc(-c4cccs4)c(=O)n(-c4ccccc4)c3n2)cc1 | inconclusive: 35.5 µM [inhibitor, partial curve] | 
COCCn1c(=O)c(C)nc2cnc(N3CCNCC3)nc21 | inconclusive: 25.1 µM [inhibitor, single point] | 
N#Cc1nc(-c2ccc(Cl)cc2)oc1N1CCCCC1 | inconclusive: 4.47 µM [inhibitor, single point] | 
CCC(C)c1ccc(C(C)NC(=S)NC2CCCCC2)cc1 (stereo not drawn) | inconclusive: 28.2 µM [inhibitor, single point] | 
COC(=O)c1ccccc1CON1C(=O)C(C)(C)N(OCc2ccccc2C(=O)OC)C(=O)C1(C)C | inconclusive: 39.8 µM [inhibitor, single point] | 
CCCCn1cnc2cc(NCc3ccncc3)ccc21 | inconclusive: 31.6 µM [inhibitor, single point] | 
Cc1cc(C)cc(NC(=O)N2CCCN(Cc3c(F)cccc3Cl)CC2)c1 |  | inactive: -4.27%
